Measurements reported in PubChem BioAssay AID504784 (Drosophila RNAi Screening Center, 2011).

- Aim: 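Genome-wide knock-down for genes giving too much or too little stored lipid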 (primary screen)
- Cell system: Drosophila Kc167 embryonic cells
- Knock-down reagent: long dsRNA against Drosophila genes, about 250 ng dsRNA per well
- Time to read-out: 4 days
- Challenge: cells fed 400 µM oleic acid bound to BSA
- Read-out: 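Microscope images give a droplet-to-nucleus area ratio, taken as log and converted to a screen-wide B-score; higher values mean greater lipid storage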
- Reading the numbers: droplet/nuclear area B-score: higher = more stored lipid (overstorage)
In all, the deposit lists about 17,000 reagents; shown is a random part of those with a known target gene and a result. 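Each column is one replicate's B-score; the combined score over replicates was not deposited, so single values may mislead.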 Names joined by + are all predicted targets of the reagent. Further read-outs or replicates are left out here.

For sr (stripe) [DRSC13284], the values are droplet/nuclear area B-score, replicate 1 = -0.583.
With knock-down of sr (stripe) [DRSC17067], the screen gave droplet/nuclear area B-score, replicate 1 = 0.583.
After knock-down of Aplip1 (APPL-interacting protein 1) [DRSC08697] the results were droplet/nuclear area B-score, replicate 1 = -0.659.
Depletion of Aplip1 (APPL-interacting protein 1) [DRSC21587] resulted in: droplet/nuclear area B-score, replicate 1 = -0.318.
Against Vps26 (Vacuolar protein sorting 26) [DRSC18555], the entry reads droplet/nuclear area B-score, replicate 1 = -1.08.
Muc68E (Mucin 68E) [DRSC09146] showed droplet/nuclear area B-score, replicate 1 = -0.674.
MSBP (membrane steroid binding protein) [DRSC20146] showed droplet/nuclear area B-score, replicate 1 = 0.164.
Depletion of CG13843 [DRSC14693] came out at: droplet/nuclear area B-score, replicate 1 = -1.66.
For GluClalpha (Glutamate-gated chloride channel subunit alpha) [DRSC16680], the values are droplet/nuclear area B-score, replicate 1 = -1.64.
After knock-down of CG14180 (retired record) [DRSC10179] the results were droplet/nuclear area B-score, replicate 1 = -1.57.
Knock-down of Snx16 (Sorting nexin 16) [DRSC06984] gave: droplet/nuclear area B-score, replicate 1 = -0.759.
Silencing of CG13407 [DRSC14583] gave: droplet/nuclear area B-score, replicate 1 = 0.0583.
Depletion of stw (straw) [DRSC04842] came out at: droplet/nuclear area B-score, replicate 1 = 0.783.
After knock-down of stw (straw) [DRSC04843], the record shows droplet/nuclear area B-score, replicate 1 = 0.962.
stw (straw) [DRSC22527] scored droplet/nuclear area B-score, replicate 1 = -0.988.
Depletion of Sox102F [DRSC17204] resulted in: droplet/nuclear area B-score, replicate 1 = -0.6.
With knock-down of crok (crooked) [DRSC02593] the results were droplet/nuclear area B-score, replicate 1 = 0.174.
Depletion of crok (crooked) [DRSC21349] came out at: droplet/nuclear area B-score, replicate 1 = 1.46.
After knock-down of Socs16D (Suppressor of Cytokine Signaling at 16D) [DRSC20087], the record shows droplet/nuclear area B-score, replicate 1 = -0.886.
For Socs16D (Suppressor of Cytokine Signaling at 16D) [DRSC23165], the values are droplet/nuclear area B-score, replicate 1 = -1.39.
Gr57a (Gustatory receptor 57a) [DRSC06401] scored droplet/nuclear area B-score, replicate 1 = -0.236.
HDAC11 (Histone deacetylase 11) [DRSC14280] scored droplet/nuclear area B-score, replicate 1 = 0.0474.
For CG17191 [DRSC15185], the values are droplet/nuclear area B-score, replicate 1 = 0.912.
After knock-down of CG33998 [DRSC05747] the results were droplet/nuclear area B-score, replicate 1 = 0.603.
For Bx (Beadex) [DRSC19350] the deposit lists droplet/nuclear area B-score, replicate 1 = 0.674.
Against Bx (Beadex) [DRSC23048] the deposit lists droplet/nuclear area B-score, replicate 1 = -0.467.

Look-ups from the entries so far:
Under “droplet/nuclear area B-score, replicate 1”, stw (straw) [DRSC04843] is entered as 0.962
For “droplet/nuclear area B-score, replicate 1”, CG33998 [DRSC05747] shows 0.603
Under “droplet/nuclear area B-score, replicate 1”, Aplip1 (APPL-interacting protein 1) [DRSC08697] has -0.659

The listing continues:
Silencing of CG3552 [DRSC10370] gave: droplet/nuclear area B-score, replicate 1 = 0.255.
CG17568 [DRSC02628] gave droplet/nuclear area B-score, replicate 1 = -0.518.
With knock-down of CG31835 + CG42585 [DRSC01412] the results were droplet/nuclear area B-score, replicate 1 = 0.0131.
Vml (Vitelline membrane-like) [DRSC17695] showed droplet/nuclear area B-score, replicate 1 = 0.274.
With knock-down of Vml (Vitelline membrane-like) [DRSC18529], the screen gave droplet/nuclear area B-score, replicate 1 = 0.0151.
After knock-down of CG14835 [DRSC10205], the record shows droplet/nuclear area B-score, replicate 1 = 0.0746.
CG15279 [DRSC01935] gave droplet/nuclear area B-score, replicate 1 = 1.46.
After knock-down of CG9813 [DRSC16569], the record shows droplet/nuclear area B-score, replicate 1 = -0.213.
For I-3 (Inhibitor-3) [DRSC20479], the entry reads droplet/nuclear area B-score, replicate 1 = 0.251.
Ccp84Ab [DRSC12587] showed droplet/nuclear area B-score, replicate 1 = -1.24.
Against Wdfy2 (WD repeat and FYVE domain containing 2) [DRSC02822] the deposit lists droplet/nuclear area B-score, replicate 1 = -3.04.
BomBc3 (Bomanin Bicipital 3) [DRSC15873] scored droplet/nuclear area B-score, replicate 1 = -0.956.
After knock-down of Sec22 (Secretory 22) [DRSC18538], the record shows droplet/nuclear area B-score, replicate 1 = -1.13.
Knock-down of phtm (phantom) [DRSC20237] gave: droplet/nuclear area B-score, replicate 1 = 0.47.
